Results are given in words; binding and its absence hold for the method and conditions named. Binding seen in cells or lysates may run through a third protein. Here binding means that the protein was enriched with, or labelled near, the bait; the list need not be complete. Sequences can lack the tags named with a protein.
What follows are binders tested against chorein (VPS13A, vacuolar protein sorting 13 homolog A) (mouse (endogenous in epididymal sperm)) (UniProt Q5H8C4) (assay: affinity purification with mass spectrometry; anti-chorein antibody on Dynabeads Protein G; 500 µg soluble fraction of wild-type mouse epididymal sperm lysate (1% NP-40), 10 min at room temperature, three washes with lysis buffer; eluate by SDS-PAGE, in-gel trypsin digestion, nano-LC-MS/MS; IgG co-IP as negative control; hits chosen by spectral count).

Protein sequences, listed by entry. Tags and fused reporters are not part of them.
UniProt Q5H8C4: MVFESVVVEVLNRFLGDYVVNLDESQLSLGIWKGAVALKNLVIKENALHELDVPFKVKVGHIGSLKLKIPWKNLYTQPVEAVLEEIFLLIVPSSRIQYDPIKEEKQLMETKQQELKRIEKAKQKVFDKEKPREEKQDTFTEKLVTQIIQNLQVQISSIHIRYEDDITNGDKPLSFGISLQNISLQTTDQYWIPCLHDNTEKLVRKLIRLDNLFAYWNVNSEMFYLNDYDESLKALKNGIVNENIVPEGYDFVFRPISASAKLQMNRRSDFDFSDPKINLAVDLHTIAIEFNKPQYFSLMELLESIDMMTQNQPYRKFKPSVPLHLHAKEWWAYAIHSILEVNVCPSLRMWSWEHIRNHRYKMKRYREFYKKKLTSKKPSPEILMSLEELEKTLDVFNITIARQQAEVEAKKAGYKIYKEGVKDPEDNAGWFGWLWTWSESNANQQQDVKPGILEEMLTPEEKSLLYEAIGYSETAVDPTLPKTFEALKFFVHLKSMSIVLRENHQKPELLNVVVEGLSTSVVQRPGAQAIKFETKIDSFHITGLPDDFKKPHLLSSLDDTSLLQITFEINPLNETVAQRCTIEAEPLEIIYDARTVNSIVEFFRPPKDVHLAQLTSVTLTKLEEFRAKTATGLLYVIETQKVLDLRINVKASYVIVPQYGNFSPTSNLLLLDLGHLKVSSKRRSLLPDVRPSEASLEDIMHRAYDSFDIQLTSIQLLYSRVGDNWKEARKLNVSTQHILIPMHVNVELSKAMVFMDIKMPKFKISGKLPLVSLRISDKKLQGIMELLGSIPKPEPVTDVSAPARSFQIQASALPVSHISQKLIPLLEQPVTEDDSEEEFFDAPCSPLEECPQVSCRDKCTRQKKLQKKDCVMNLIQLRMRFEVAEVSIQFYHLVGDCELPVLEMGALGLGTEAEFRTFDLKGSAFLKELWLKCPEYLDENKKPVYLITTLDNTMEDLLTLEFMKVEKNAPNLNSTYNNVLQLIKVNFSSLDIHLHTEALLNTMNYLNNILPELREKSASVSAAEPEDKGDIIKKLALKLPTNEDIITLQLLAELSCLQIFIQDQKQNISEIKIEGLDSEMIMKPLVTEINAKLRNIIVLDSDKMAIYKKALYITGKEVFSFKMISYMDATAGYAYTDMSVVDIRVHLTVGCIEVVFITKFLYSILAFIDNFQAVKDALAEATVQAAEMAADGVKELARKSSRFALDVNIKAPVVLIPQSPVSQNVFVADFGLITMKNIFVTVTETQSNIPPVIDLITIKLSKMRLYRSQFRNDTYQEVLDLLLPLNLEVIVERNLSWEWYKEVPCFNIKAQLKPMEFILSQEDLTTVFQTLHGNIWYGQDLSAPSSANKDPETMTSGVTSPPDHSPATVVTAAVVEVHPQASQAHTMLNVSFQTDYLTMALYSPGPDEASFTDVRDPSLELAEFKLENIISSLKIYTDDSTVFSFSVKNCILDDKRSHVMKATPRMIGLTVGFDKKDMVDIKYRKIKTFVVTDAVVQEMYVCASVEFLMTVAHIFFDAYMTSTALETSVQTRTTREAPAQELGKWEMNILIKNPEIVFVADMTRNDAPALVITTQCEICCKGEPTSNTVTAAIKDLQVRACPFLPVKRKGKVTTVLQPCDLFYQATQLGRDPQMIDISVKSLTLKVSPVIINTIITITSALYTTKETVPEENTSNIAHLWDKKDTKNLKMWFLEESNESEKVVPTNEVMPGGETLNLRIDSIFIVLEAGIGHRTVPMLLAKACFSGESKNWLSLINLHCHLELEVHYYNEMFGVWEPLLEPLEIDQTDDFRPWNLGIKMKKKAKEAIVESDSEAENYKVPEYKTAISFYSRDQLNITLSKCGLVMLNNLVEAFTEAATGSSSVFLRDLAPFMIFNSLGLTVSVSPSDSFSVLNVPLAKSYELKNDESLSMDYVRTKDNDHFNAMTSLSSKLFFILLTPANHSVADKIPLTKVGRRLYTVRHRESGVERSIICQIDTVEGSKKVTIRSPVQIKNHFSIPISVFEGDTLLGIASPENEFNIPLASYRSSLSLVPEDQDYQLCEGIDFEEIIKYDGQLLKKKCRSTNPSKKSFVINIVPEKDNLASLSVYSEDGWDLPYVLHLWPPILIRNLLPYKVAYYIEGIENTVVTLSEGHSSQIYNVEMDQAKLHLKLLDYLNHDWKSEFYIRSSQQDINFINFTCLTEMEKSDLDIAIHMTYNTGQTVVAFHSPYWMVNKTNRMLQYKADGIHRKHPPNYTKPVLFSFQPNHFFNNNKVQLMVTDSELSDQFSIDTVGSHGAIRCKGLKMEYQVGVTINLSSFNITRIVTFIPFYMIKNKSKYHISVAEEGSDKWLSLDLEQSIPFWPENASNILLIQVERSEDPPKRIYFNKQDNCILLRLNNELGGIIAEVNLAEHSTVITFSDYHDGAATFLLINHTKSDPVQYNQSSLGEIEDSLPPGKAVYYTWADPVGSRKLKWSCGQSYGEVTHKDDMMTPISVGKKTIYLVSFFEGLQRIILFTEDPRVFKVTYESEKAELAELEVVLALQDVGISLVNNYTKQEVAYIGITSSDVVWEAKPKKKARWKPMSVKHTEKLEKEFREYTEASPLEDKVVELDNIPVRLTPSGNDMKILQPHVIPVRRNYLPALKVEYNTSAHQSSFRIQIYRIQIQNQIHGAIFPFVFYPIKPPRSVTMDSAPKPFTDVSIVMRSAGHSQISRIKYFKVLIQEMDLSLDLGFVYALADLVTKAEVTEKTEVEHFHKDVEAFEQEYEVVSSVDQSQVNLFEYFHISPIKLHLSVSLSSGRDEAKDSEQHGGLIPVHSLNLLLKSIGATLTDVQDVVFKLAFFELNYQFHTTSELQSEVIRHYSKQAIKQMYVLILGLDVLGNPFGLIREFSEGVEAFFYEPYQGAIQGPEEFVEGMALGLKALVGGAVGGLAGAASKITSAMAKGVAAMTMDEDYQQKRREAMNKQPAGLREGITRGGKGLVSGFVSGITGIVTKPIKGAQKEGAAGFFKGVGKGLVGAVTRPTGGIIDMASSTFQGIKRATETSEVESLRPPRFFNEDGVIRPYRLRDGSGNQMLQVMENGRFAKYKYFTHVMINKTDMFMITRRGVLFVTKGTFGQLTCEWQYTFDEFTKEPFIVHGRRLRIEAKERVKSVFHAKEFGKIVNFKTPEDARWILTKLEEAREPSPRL

| binding | Binder |
| --- | --- |
| binds | acetyl-CoA acetyltransferase 1 (ACAT1) (protein, UniProt Q8QZT1 31-424) ASKPTLNEVVIVSAIRTPIGSFLGSLASQPATKLGTAAIQGAIEKAGIPKEEVKEVYMGNVIQGGEGQAPTRQATLGAGLPISTPCTTVNKVCASGMKAIMMASQSLMCGHQDVMVAGGMESMSNVPYVMSRGATPYGGVKLEDLIVKDGLTDVYNKIHMGNCAENTAKKMNISRQEQDTYALSSYTRSKEAWDAGKFASEITPITISVKGKPDVVVKEDEEYKRVDFSKVPKLKTVFQKENGTITAANASTLNDGAAALVLMTAEAAQRLNVKPLARIAAFADAAVDPIDFPLAPAYAVPKVLKYAGLKKEDIAMWEVNEAFSVVVLANIKMLEIDPQKVNIHGGAVSLGHPIGMSGARIVVHMAHALKPGEFGLASICNGGGGASALLIEKL |
| binds | glutathione S-transferase mu 5 (GSTM5) (protein, UniProt P48774 1-224) MSSKSMVLGYWDIRGLAHAIRMLLEFTDTSYEEKRYICGEAPDYDRSQWLDVKFKLDLDFPNLPYLMDGKNKITQSNAILRYIARKHNMCGDTEEEKIRVDIMENQIMDFRMQLVRLCYNSNHENLKPQYLEQLPAQLKQFSLFLGKFTWFAGEKLTFVDFLTYDVLDQNRIFEPKCLDEFPNLKAFMCRFEALEKIAAFLQSDRFFKMPINNKMAKWGNKCLC |
| binds | isocitrate dehydrogenase 3 subunit alpha (IDH3A) (protein, UniProt Q9D6R2 28-366) AGGVQTVTLIPGDGIGPEISASVMKIFDAAKAPIQWEERNVTAIQGPGGKWMIPPEAKESMDKNKMGLKGPLKTPIAAGHPSMNLLLRKTFDLYANVRPCVSIEGYKTPYTDVNIVTIRENTEGEYSGIEHVIVDGVVQSIKLITEEASKRIAEFAFEYARNNHRSNVTAVHKANIMRMSDGLFLQKCREVAENCKDIKFNEMYLDTVCLNMVQDPSQFDVLVMPNLYGDILSDLCAGLIGGLGVTPSGNIGANGVAIFESVHGTAPDIAGKDMANPTALLLSAVMMLRHMGLFDHAAKIEAACFATIKDGKSLTKDLGGNAKCSDFTEEICRRVKDLD |

— PMC10813020
